In the supplement of paper PMC7125110:
± gives the standard error. Many entries were measured with a wide error.

B1: glmS ribozyme (parent)
chain: AUAAAAGCGCCAGAACUACAGAAAUGUAGUUGACGAGGAGGAGGUUUAUCGAAUUUUCGGCGGAUGCCUCCAAA

Variants of: B1
Experiment: self-cleavage kobs at 10000 uM GlcN6P; higher = faster cleavage; RNA array
Details: with glucosamine-6-phosphate
Procedure, shortened: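 Tracking of barcoded ribozyme variants used a hybridised Cy3 probe at 37 °C, after in situ transcription by E. coli RNA polymerase on sequenced MiSeq chips. The flowed solution held 40 μM to 10 mM glucosamine-6-phosphate in HEPES/KCl/Mg(OAc)2 buffer, and imaging ran over ~14 h. kobs was taken from exponential decay fits of normalised per-tile medians, and kcat and KM from weighted Michaelis–Menten fits.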
In the case of AUAAAAGCGCCAGAACUACAGAAAUGUAGUUGACGAGGAGGAGGUUUAUGGAAUUUUCGGCGAAUGCCUCCAAA [C50G G63A], the “self-cleavage kobs at 10000 uM GlcN6P” value is reported as 1.67e-05 ± 1.3e-05 s⁻¹. For AUAAAAGCGCCAGAACUACAGAAAUGUAGUUGACGAGGAGGAGGUUUGUCGAAUUUUCGGCGGAAGCCUUCAAA [A48G U65A C70U], the “self-cleavage kobs at 10000 uM GlcN6P” value was 2.71e-05 ± 1.5e-05 s⁻¹. AUAAAAGCGCCAGAACUACAGAAAUGUAGUUGACGUGGAGGAGGUUUAUCGAAUUUUCGGCGGAUGCCGCUAAA [A36U U69G C71U] was tested, and the “self-cleavage kobs at 10000 uM GlcN6P” value was 2.77e-05 ± 2.2e-05 s⁻¹. For AUAAAAGCGCCAGAACUACAGAAAUGUAGUUGACGAGGAGGCGGUUUAUCGAAUCUUCGGCGGAUGCCUCCAAA [A42C U55C], the “self-cleavage kobs at 10000 uM GlcN6P” value was 3.07e-05 ± 1.7e-05 s⁻¹. For AUAAAAGCGCCAGAACUACAGAAAUGUAGUUGACGAGGAGGAGGUUUAUCGAAUUAUCGGCGGAUGCAUCCAAA [U56A C68A], the “self-cleavage kobs at 10000 uM GlcN6P” value was 1.81e-05 ± 1.1e-05 s⁻¹. With AUAAAAGCGCCAGAACUACAGAAAUGUAGUUGACGAGGAGGAGGUUUAUCGAUUUUUCGGCGGAUGCAUCCAAA [A53U C68A] the “self-cleavage kobs at 10000 uM GlcN6P” value was 1.52e-05 ± 1.2e-05 s⁻¹. For AUAAAAGCGCCAGAACUACAGAAAUGUAGUUGACGAGGAGCAGGUUUAUCGAAUUUUCGGCGGAUUCCUCCAAA [G41C G66U], the “self-cleavage kobs at 10000 uM GlcN6P” value was 2.26e-05 ± 1.4e-05 s⁻¹. With AUAAAAGCGCCAGAACUACAGAAAUGUAGUUGACGAGGAGGAGGUUUAUCGAAUCUUCGGUGGAUGCCUCCAAA [U55C C61U] the “self-cleavage kobs at 10000 uM GlcN6P” value was 2.49e-05 ± 1.4e-05 s⁻¹. With AUAAAAGCGCCAGAACUACAGAAAUGUAGUUGACGAGGAUGAGGUUUAUCGAAUUAACGGCGGAUGCCUCCAAA [G40U U56A U57A] the “self-cleavage kobs at 10000 uM GlcN6P” value was 1.82e-05 ± 1.3e-05 s⁻¹. With AUAAAAGCGCCAGAACUACAGAAAUGUAGUUGACGAGGAGGAGGUUUAACGAGUUUUCGGCGGAUGCCUCCAAA [U49A A53G] the “self-cleavage kobs at 10000 uM GlcN6P” value was 1.68e-05 ± 1.2e-05 s⁻¹. With AUAAAAGCGCCAGAACUACAGAAAUGUAGUUGACGAGGCCGAGGUUCAUCGAAUUUUCGGCGGAUGCCUCCAAA [A39C G40C U47C] the “self-cleavage kobs at 10000 uM GlcN6P” value was 2.95e-05 ± 2e-05 s⁻¹. For AUAAAAGCGCCAGAACUACAGAAAUGUAGUUGACGAGGAGGAGGUUUAUCGAUUUUUCGGCGGACGCCUCAAAA [A53U U65C C71A], the “self-cleavage kobs at 10000 uM GlcN6P” value was 3.46e-05 ± 2.9e-05 s⁻¹. In the case of AUAAAAGCGCCAGAACUACAGAAAUGUAGUUGACGAGGAGGAGGUUGAUCGACUUUUAGGCGGAUGCCUCCAAA [U47G A53C C58A], the “self-cleavage kobs at 10000 uM GlcN6P” value is reported as 3.14e-05 ± 1.8e-05 s⁻¹. For AUAAAAGCGCCAGAACUACAGAAAUGUAGUUGACGAGGCAGAGGUUUAUCGAGUUUUCGGCGGAGGCCUCCAAA [A39C G40A A53G U65G], the “self-cleavage kobs at 10000 uM GlcN6P” value was 4.48e-05 ± 3.3e-05 s⁻¹. AUAAAAGCGCCAGAACUACAGAAAUGUAGUUGACGAGGAGGAGGUUUAUGGAAUUUUCGGCUGAGGCCUCCAAA [C50G G62U U65G] was tested, and the “self-cleavage kobs at 10000 uM GlcN6P” value was 2.12e-05 ± 2e-05 s⁻¹. With AUAAAAGCGCCAGAACUACAGAAAUGUAGUUGACGAGGAGGAGGUUUAGCGAUUUAUCGGCGGAUGACUACAAA [U49G A53U U56A C67A C70A] the “self-cleavage kobs at 10000 uM GlcN6P” value was 3.42e-05 ± 2e-05 s⁻¹. In the case of AUAAAAGCGCCAGAACUACAGAAAUGUAGUUGACGAGGAGGAGGAUUAUUGAAGUUUCGGCGGAUGCCUCCAAA [U45A C50U U54G], the “self-cleavage kobs at 10000 uM GlcN6P” value is reported as 2.24e-05 ± 2e-05 s⁻¹. In the case of AUAAAAGCGCCAGAACUACAGAAAUGUAGUUGACGAGGAGGAGGAUUAUCGAAUUUUCGGCGGAUGCCGCCAAA [U45A U69G], the “self-cleavage kobs at 10000 uM GlcN6P” value is reported as 4.2e-05 ± 2.2e-05 s⁻¹. In the case of AUAAAAGCGCCAGAACUACAGAAAUGUAGUUGACGAGGAGGAGGUUUAUCGAAAUUUCGGCGGAUGCCUACAAA [U54A C70A], the “self-cleavage kobs at 10000 uM GlcN6P” value is reported as 0.00125 ± 0.0009 s⁻¹. For AUAAAAGCGCCAGAACUACAGAAAUGUAGUUGACGAAGAGGAGGUUUAUGGAAUUUUAGGCGGAUGACUCUAAA [G37A C50G C58A C67A C71U], the “self-cleavage kobs at 10000 uM GlcN6P” value was 2.02e-05 ± 1.4e-05 s⁻¹. In the case of AUAAAAGCGCCAGAACUACAGAAAUGUAGUUGACGAGGAGGAGGUUUAUGGAAUUUUCGGUGGAUGCCUGCAAA [C50G C61U C70G], the “self-cleavage kobs at 10000 uM GlcN6P” value is reported as 2.02e-05 ± 1.7e-05 s⁻¹. With AUAAAAGCGCCAGAACUACAGAAAUGUAGUUGACGAGGAGGAGAUUUAUCGUAUUUUCGGCGGAUGCCUCCAAA [G44A A52U] the “self-cleavage kobs at 10000 uM GlcN6P” value was 2.19e-05 ± 1.4e-05 s⁻¹. In the case of AUAAAAGCGCCAGAACUACAGAAAUGUAGUUGACGAGGAGGAGGUUUAUAGAAUUUUCGGCGGAUGCCUUGAAA [C50A C70U C71G], the “self-cleavage kobs at 10000 uM GlcN6P” value is reported as 2.9e-05 ± 1.7e-05 s⁻¹. With AUAAAAGCGCCAGAACUACAGAAAUGUAGUUGACGAGUAGGAGGUUUAUCGAAUUUUCGGCGGAUGCCUCGAAA [G38U C71G] the “self-cleavage kobs at 10000 uM GlcN6P” value was 1.67e-05 ± 1.6e-05 s⁻¹. In the case of AUAAAAGCGCCAGAACUACAGAAAUGUAGUUGACGAGGAGGAGGUUUAGCGUAUUUUCGGCGGAUGCCUCCAAA [U49G A52U], the “self-cleavage kobs at 10000 uM GlcN6P” value is reported as 1.5e-05 ± 1.1e-05 s⁻¹. AUAAAAGCGCCAGAACUACAGAAAUGUAGUUGACGAGGAGGAGGUUUAUAGAAUUGUCGGCGGAUGCCUACAAA [C50A U56G C70A] was tested, and the “self-cleavage kobs at 10000 uM GlcN6P” value was 2.17e-05 ± 1.3e-05 s⁻¹. For AUAAAAGCGCCAGAACUACAGAAAUGUAGUUGACGAGGAGGAGGUUUCUCGAAUUUUCGGCGGACGCCUCCAAA [A48C U65C], the “self-cleavage kobs at 10000 uM GlcN6P” value was 3.15e-05 ± 1.6e-05 s⁻¹. For AUAAAAGCGCCAGAACUACAGAAAUGUAGUUGACGAGGAGGAGGUUUAUAGAAUUUUGGGCGGAGGCAUCGAAA [C50A C58G U65G C68A C71G], the “self-cleavage kobs at 10000 uM GlcN6P” value was 2.5e-05 ± 1.8e-05 s⁻¹. With AUAAAAGCGCCAGAACUACAGAAAUGUAGUUGACGAGGAGGAAGUUUAUCGAAUCUUCGGCGGAUGCCUCCAAA [G43A U55C] the “self-cleavage kobs at 10000 uM GlcN6P” value was 3.23e-05 ± 1.6e-05 s⁻¹. AUAAAAGCGCCAGAACUACAGAAAUGUAGUUGACGAGGAGGAGGUUUAUAGAAUUUUCGGCGGAUGCGUCCAAA [C50A C68G] was tested, and the “self-cleavage kobs at 10000 uM GlcN6P” value was 1.4e-05 ± 1.2e-05 s⁻¹. In the case of AUAAAAGCGCCAGAACUACAGAAAUGUAGUUGACGAGGAGGUGGUUUAUCGAGUUUUCGGCGGAUGCCUGCAAA [A42U A53G C70G], the “self-cleavage kobs at 10000 uM GlcN6P” value is reported as 1.79e-05 ± 1.1e-05 s⁻¹. AUAAAAGCGCCAGAACUACAGAAAUGUAGUUGACGAGGAGGUGGUUUAUCGAAUUUUCGGCGGAAGCCUUCAAA [A42U U65A C70U] was tested, and the “self-cleavage kobs at 10000 uM GlcN6P” value was 2.09e-05 ± 2e-05 s⁻¹. AUAAAAGCGCCAGAACUACAGAAAUGUAGUUGACGAGGAGGAGGUUUAUAGAAUUUUCGGCGUAUGCCUGCAAA [C50A G63U C70G] was tested, and the “self-cleavage kobs at 10000 uM GlcN6P” value was 2.2e-05 ± 2.2e-05 s⁻¹. In the case of AUAAAAGCGCCAGAACUACAGAAAUGUAGUUGACGAGGCGGAGGUUUAUCGAAUUUUCGGCGGAUGCCUGCAAA [A39C C70G], the “self-cleavage kobs at 10000 uM GlcN6P” value is reported as 1.37e-05 ± 1.3e-05 s⁻¹. For AUAAAAGCGCCAGAACUACAGAAAUGUAGUUGACGAGGAGGAGGUGUGUCGAAUUUUCGGCGGAUACCUCCAAA [U46G A48G G66A], the “self-cleavage kobs at 10000 uM GlcN6P” value was 2.64e-05 ± 1.7e-05 s⁻¹. With AUAAAAGCGCCAGAACUACAGAAAUGUAGUUGACGAGGUGGAGGUUUAUCGAAGUUUUGGCGGAUGCCUCCAAA [A39U U54G C58U] the “self-cleavage kobs at 10000 uM GlcN6P” value was 2.07e-05 ± 1.2e-05 s⁻¹. AUAAAAGCGCCAGAACUACAGAAAUGUAGUUGACGAGUAGGAGGUUUAUUCAAUUUUCGGCGGAUGCCACCAAA [G38U C50U G51C U69A] was tested, and the “self-cleavage kobs at 10000 uM GlcN6P” value was 3.04e-05 ± 2.3e-05 s⁻¹.
